Laboratory results published in article PMC3807668, “Structure of the CRISPR Interference Complex CSM Reveals Key Similarities with Cascade” (Molecular Cell, 2013).
Results are given in words; binding and its absence hold for the method and conditions named. Some results given as binding are weak or reduced against the parent protein; the word gives no strength.

What was measured:
[1] = target: T1, Sso1426 (S. solfataricus (endogenous in S. solfataricus)) (UniProt Q97YA6); test: cross-linking; purified CSM complex (1 ug/ul) with a 1:1 mixture of d4 and d0 BS3, 1 hr at room temperature; cross-linked peptides found by MS (MassMatrix) and validated by hand; both purified
T1 sequence (chain, methylation (residues not printed)): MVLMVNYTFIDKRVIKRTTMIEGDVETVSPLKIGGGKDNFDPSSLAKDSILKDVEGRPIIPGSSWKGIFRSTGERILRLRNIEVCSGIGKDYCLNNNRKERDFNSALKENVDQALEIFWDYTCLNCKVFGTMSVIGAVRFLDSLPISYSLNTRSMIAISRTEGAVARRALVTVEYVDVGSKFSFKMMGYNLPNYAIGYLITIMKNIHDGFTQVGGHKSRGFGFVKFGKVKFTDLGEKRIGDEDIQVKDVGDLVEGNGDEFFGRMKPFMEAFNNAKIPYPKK

[2] = target: T2, Sso1432 (S. solfataricus (endogenous in S. solfataricus)) (UniProt Q97YA0); test: as above
T2 sequence (chain, methylation (residues not printed)): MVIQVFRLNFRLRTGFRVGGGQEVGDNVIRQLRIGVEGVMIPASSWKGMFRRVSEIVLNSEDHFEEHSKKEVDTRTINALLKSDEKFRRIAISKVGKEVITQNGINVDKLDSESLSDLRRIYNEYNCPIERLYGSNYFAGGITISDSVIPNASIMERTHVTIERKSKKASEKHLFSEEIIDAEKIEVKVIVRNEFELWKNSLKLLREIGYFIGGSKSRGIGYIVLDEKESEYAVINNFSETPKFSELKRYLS

binding [1]: binds
binding [2]: binds
B1: Sso1425 (natural protein, UniProt Q97YA7 1-250, looked up)
chain: MKMSCMDLDVITTVVKIEGKLRNETLLRVGKGKTQDFAEATDNPIIKYRDRPLIPGSSLKGAFRSLVESYTKSLNDSKYYVCDLDDNSCVSCEEKKKDNGIVEGRYCIPCILFGFKDLASRVYILDAIAEKYSISQRTMVAINRVFGGQMPGHLYTLDYVDPGSEFSFMMMIYNLNLIEGEKDWKAKSVEALKFLLATLVREGIFVGARKSVGYGLIKLVDAKVSLYKAPDHLVSPVIVKKLEEVIGTNG
modifications: methylation; phosphorylation (residues not given)
notes: Sso1425, RAMP subunit of the CSM complex of S. solfataricus; also called RAMP subunit; Csm3 paralog; source: endogenous, S. solfataricus PH1-16; co-purified with the tagged subunit (HisTrap, monoQ, gel filtration)
